Measurements taken from US7326704B2, “Iminobenzoxazines, iminobenzthiazines and iminoquinazolines for controlling invertebrate pests” (E.I. duPont de Nemours and Company, priority 2001, dated 2008).
Some of these results come from one statement about several compounds together.

What was measured:
Format in all cases: in vivo
[1] = system: tobacco budworm (Heliothis virescens); assay: Test C: control of tobacco budworm on cotton plant, foliar spray, visual feeding damage; conditions: sprayed at 50 ppm, 2-day-old larvae, assessed after 6 days
[2] = system: fall armyworm (Spodoptera frugiperda); assay: Test B: control of fall armyworm on corn (maize) plant, foliar spray, visual feeding damage; conditions: sprayed at 50 ppm, 1-day-old larvae, assessed after 6 days
[3] = system: diamondback moth (Plutella xylostella); assay: Test A: control of diamondback moth on radish plant, foliar spray, visual feeding damage; conditions: neonate larvae, assessed after 6 days
[4] = system: beet armyworm (Spodoptera exigua); assay: Test D: control of beet armyworm on corn (maize) plant, foliar spray, visual feeding damage; conditions: sprayed at 50 ppm, 1-day-old larvae, assessed after 6 days

Measured: plant protection (feeding damage)

Cc1cccc2c(=NC(C)C)oc(-c3cc(C(F)(F)F)nn3-c3ccccc3Cl)nc12 [Compound 2, N-[2-[1-(2-chlorophenyl)-3-(trifluoromethyl)-1H-pyrazol-5-yl]-8-methyl-4H-3,1-benzoxazin-4-ylidene]-2-propanamine]
≤ 20%: [1] | [2] | [3]; sprayed at 50 ppm | [4]

Cc1cccc2c(=NC(C)C)oc(-c3cc(C(F)(F)F)nn3-c3ncccc3Cl)nc12 [Compound 4, N-[2-[1-(3-chloro-2-pyridinyl)-3-(trifluoromethyl)-1H-pyrazol-5-yl]-8-methyl-4H-3,1-benzoxazin-4-ylidene]-2-propanamine]
≤ 20%: [1] | [2] | [3]; sprayed at 50 ppm | [4]

O=C1CCN2C(=N1)c1cc(Cl)cc(Cl)c1N=C2c1cc(C(F)(F)F)nn1-c1ncccc1Cl [Compound 14]
≤ 20%: [3]; sprayed at 250 ppm (or less), no rate mark
